Data: US20140113898A1, “BISARYLSULFONE AND DIALKYLARYLSULFONE COMPOUNDS AS CALCIUM CHANNEL BLOCKERS” (Zalicus Pharmaceuticals Ltd., priority 2010, published 2014)

Chains of the proteins cited; added tags and fusions are not shown. Residues count along the entry.
UniProt Q00975, whole entry: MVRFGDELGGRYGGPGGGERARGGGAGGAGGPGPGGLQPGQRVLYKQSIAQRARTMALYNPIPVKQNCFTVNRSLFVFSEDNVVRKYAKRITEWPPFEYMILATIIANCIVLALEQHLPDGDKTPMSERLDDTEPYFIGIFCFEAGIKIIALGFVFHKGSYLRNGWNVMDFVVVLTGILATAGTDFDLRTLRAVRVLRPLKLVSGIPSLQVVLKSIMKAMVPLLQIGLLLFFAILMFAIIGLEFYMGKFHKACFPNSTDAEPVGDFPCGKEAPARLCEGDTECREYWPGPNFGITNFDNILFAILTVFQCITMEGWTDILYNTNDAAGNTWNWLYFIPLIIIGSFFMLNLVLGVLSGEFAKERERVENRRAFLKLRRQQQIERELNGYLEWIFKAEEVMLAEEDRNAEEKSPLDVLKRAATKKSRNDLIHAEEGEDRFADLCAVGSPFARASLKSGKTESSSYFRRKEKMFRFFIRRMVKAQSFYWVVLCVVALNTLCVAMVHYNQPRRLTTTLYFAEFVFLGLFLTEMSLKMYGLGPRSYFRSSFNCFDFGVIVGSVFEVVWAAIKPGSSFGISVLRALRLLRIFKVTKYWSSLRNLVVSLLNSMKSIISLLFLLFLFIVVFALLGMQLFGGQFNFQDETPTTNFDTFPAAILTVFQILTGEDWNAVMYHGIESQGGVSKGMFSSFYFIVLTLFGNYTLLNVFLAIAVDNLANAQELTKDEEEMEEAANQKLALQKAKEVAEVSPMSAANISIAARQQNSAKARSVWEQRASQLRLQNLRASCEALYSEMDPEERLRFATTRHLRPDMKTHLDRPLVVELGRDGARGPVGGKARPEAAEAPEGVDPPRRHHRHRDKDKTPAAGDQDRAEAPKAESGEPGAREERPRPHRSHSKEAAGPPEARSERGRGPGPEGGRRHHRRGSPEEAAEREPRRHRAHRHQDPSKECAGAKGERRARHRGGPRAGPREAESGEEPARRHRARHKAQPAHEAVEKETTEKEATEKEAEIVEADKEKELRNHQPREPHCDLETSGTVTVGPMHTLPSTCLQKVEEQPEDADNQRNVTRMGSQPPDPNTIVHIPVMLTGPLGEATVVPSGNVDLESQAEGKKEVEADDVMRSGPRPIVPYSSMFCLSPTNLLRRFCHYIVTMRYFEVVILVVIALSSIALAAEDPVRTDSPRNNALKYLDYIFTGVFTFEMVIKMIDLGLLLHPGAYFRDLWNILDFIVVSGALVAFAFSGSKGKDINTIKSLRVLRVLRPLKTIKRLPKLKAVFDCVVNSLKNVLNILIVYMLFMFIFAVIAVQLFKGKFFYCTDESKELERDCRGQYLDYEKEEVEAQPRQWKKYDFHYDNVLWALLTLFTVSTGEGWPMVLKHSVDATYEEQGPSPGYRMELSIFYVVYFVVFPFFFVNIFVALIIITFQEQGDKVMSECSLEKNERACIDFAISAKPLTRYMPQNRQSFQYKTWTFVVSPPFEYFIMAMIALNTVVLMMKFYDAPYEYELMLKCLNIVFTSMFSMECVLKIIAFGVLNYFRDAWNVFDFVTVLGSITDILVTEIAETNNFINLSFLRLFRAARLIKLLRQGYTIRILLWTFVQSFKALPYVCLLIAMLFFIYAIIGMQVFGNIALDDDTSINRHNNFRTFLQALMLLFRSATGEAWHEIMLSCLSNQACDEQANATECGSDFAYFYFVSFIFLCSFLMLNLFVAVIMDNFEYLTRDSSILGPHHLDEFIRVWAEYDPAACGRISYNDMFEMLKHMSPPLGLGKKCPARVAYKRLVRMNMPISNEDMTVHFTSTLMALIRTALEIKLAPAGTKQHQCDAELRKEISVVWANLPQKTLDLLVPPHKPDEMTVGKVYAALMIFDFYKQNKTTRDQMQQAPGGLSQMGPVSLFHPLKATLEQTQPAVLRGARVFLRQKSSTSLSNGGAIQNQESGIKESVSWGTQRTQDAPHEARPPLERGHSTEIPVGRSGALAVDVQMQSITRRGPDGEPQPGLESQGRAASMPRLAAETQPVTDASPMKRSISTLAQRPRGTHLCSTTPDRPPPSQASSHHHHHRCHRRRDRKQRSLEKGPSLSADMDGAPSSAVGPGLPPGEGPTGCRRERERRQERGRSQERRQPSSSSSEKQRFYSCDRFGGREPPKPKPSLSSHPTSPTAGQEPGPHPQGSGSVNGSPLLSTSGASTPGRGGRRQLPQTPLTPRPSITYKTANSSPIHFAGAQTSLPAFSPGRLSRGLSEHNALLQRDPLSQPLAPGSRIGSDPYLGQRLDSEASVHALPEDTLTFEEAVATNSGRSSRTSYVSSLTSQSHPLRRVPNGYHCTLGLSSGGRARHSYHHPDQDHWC
UniProt O95180, whole entry: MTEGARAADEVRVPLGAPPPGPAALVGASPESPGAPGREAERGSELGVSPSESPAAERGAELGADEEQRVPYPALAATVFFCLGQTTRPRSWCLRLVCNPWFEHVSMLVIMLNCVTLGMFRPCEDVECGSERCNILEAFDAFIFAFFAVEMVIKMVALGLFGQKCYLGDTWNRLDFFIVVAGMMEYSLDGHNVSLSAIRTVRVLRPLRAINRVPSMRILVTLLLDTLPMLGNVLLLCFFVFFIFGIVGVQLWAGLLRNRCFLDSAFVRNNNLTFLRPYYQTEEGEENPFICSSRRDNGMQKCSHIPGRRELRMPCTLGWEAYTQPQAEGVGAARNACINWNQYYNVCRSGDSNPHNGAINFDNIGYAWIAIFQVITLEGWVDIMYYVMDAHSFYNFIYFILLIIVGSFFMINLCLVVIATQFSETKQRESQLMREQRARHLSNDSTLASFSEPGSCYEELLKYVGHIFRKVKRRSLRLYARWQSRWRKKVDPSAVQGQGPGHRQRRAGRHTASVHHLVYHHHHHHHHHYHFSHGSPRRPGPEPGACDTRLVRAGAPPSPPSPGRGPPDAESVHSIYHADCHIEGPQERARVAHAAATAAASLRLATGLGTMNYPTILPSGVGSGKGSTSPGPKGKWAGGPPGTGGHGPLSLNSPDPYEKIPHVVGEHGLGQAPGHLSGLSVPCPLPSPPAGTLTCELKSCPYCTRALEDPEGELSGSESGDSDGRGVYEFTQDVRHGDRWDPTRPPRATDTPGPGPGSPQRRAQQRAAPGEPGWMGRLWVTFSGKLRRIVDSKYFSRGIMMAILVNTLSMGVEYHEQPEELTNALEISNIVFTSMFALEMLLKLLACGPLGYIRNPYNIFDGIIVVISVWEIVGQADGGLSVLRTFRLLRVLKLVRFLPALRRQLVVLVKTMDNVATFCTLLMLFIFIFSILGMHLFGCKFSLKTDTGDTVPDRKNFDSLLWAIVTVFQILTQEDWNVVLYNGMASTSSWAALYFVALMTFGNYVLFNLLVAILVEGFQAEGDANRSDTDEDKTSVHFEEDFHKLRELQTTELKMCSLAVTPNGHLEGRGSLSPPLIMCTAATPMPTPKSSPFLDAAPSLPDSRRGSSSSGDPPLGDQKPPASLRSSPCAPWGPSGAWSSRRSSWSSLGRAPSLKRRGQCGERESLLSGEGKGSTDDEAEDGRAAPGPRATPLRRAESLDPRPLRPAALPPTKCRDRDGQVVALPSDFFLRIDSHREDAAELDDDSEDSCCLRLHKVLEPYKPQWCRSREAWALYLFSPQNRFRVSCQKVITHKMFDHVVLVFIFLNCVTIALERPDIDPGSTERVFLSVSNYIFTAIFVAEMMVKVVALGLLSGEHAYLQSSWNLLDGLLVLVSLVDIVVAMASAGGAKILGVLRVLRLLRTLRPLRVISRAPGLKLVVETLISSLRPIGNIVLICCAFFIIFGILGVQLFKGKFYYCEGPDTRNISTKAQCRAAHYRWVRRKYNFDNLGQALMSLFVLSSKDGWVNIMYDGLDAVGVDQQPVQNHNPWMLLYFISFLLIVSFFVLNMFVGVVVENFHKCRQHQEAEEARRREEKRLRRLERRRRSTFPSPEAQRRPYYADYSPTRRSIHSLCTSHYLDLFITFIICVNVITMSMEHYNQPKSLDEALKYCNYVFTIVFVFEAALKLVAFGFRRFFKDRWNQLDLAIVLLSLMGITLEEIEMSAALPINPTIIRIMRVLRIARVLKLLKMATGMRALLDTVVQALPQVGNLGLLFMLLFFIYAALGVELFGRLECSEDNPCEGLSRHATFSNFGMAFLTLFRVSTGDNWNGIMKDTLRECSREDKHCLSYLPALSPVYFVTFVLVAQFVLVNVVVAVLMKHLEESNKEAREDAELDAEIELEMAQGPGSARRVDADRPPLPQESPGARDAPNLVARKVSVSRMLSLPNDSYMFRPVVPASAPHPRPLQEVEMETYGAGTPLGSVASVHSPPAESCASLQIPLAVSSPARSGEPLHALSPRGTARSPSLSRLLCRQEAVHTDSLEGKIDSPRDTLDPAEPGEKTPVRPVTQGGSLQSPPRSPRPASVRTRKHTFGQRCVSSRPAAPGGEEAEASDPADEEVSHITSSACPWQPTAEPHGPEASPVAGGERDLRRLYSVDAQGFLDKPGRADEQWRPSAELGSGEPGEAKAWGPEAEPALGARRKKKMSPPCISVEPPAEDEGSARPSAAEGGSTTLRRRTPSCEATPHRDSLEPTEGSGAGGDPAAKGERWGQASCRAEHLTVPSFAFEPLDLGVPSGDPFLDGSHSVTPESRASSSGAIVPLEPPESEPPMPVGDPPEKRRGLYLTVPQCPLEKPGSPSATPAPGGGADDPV
UniProt P54289, 25-946 partner limits assumed: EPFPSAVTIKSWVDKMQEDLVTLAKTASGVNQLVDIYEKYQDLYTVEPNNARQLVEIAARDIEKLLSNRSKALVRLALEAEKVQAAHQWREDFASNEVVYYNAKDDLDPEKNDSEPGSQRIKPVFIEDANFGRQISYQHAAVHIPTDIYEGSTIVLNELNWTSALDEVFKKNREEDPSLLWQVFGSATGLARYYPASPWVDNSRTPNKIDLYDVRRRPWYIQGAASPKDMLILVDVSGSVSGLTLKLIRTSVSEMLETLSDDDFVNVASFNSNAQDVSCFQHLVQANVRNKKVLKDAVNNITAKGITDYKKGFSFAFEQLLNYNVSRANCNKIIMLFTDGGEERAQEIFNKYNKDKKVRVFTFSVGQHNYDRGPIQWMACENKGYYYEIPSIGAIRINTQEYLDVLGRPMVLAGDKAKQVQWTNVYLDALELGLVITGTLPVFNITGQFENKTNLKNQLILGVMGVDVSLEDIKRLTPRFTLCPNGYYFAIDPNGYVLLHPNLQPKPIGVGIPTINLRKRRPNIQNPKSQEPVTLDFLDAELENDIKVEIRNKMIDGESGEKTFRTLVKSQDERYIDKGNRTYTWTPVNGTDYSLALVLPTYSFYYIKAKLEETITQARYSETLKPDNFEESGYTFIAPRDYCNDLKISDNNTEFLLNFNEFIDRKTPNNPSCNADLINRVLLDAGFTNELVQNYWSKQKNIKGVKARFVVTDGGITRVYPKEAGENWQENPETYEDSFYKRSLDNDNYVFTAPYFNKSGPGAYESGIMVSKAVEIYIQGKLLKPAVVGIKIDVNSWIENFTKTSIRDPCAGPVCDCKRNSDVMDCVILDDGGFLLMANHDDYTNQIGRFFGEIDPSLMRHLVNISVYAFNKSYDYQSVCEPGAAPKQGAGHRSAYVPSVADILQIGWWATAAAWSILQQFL
UniProt P54289, 947-1103 partner limits assumed: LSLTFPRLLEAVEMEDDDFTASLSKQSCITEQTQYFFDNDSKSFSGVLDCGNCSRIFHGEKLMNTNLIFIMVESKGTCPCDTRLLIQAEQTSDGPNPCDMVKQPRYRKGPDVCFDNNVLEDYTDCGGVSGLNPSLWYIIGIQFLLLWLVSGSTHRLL
UniProt P54284, whole entry partner: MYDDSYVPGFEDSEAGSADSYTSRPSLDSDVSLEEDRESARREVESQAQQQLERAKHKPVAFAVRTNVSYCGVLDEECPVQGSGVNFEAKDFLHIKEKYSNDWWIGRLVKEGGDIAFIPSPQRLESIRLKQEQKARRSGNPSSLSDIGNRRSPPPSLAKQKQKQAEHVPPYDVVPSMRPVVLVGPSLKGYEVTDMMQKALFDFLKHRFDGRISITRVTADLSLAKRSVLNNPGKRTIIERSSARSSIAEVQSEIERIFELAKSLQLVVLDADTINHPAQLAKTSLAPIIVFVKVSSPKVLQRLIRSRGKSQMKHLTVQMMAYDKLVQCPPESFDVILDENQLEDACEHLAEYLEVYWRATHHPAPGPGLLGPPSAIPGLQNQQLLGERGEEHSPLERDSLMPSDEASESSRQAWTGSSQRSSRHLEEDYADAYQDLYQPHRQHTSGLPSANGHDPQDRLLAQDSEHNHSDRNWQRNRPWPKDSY

What was measured:
Format in all cases: cell-based
CaV2.2 = CaV2.2 (Homo sapiens, UniProt Q00975); assay: High-throughput CaV2.2/Kir2.3 FLIPR fluorescent assay; conditions: read-out: FLIPR data CaV2.2, Fluo-4 FLIPR, closed or inactivated state not stated
Description: (§1) Cells were plated in 384-well, clear-bottom, black-walled, poly-D-lysine coated plates (Becton Dickinson, Franklin Lake, N.J.) 2 days prior to use in the FLIPR assay. 100 μL of cells (1.4×10^6 cell/mL) containing doxycyline (Sigma-Aldrich, 1.5 μg/mL; to induce channel expression) were added to each well using a Multidrop (Thermo Scientific, Waltham, Mass.) and were maintained in 5% CO2 incubator at 37° C. On the morning of the assay, cells were transferred to a 5% CO2 incubator at 29° C.
Cells were washed with a wash buffer containing (in mM): 118 NaCl, 18.4 HEPES, 11.7 D-glucose, 2 CaCl2, 0.5 MgSO4, 4.7 KCl, 1.2 KH2PO4, pH adjusted to 7.2 with NaOH. 4.4 μM of the fluorescent indicator dye, Fluo-4 (Invitrogen), prepared in pluronic acid (Sigma-Aldrich), was loaded into the wells and incubated for 45 minutes at 29° C. in 5% CO2. Cells were then rinsed with either a 2 mM KCl closed-state buffer (in mM: 138.5 NaCl, 10 HEPES, 10 D-glucose, 1 CaCl2, and 2 KCl, with the pH adjusted to 7.4 with NaOH) when performing the closed-state assay or 12.5 mM KCl inactivated-state buffer (in mM: 128 NaCl, 10 HEPES, 10 D-glucose, 1 CaCl2, and 12.5 mM KCl, with the pH adjusted to 7.4 with NaOH) when performing the inactivated-state assay.
Concentration-dependent response curves were generated from 5 mM stock solutions prepared in DMSO (Sigma-Aldrich) and diluted in either the 2 mM KCl buffer or 12.5 mM KCl buffer and incubated for 20 minutes at 29° C. in 5% CO2. Calcium entry was evoked with an addition of 130 mM KCl stimulation buffer (in mM: 10.5 NaCl, 10 HEPES, 10 D-glucose, 1 CaCl2, and 130 KCl, with the pH adjusted to 7.4 with NaOH) for both the closed-state or inactivated-state assay. A change in the Fluo-4 fluorescence signal was assessed using FLIPR^TETRA™ instrument (Molecular Devices, Sunnyvale, Calif.) for 3 minutes following the elevation of extracellular KCl using an illumination wavelength of 470-495 nm with emissions recorded at 515-575 nm.
Concentration-dependent response curves were obtained by comparing the fluorescence signal in the presence of compound and fitted with a logistic function (1) to obtain the concentration that inhibited 50% (IC50) of the RLU signal using OriginPro v.7.5 software (OriginLab, Northampton, Mass.).
(§2) To assess the quality of the FLIPR assays the Z-factor (2) was used to quantify the suitability of the assay conditions using the following equation: […]
(§3) Data are expressed as mean and standard deviation (SD).

CaV3.2 = CaV3.2 (Homo sapiens, UniProt O95180); assay: High-throughput CaV3.2/Kir2.3 T-type FLIPR fluorescent assay; conditions: read-out: FLIPR data CaV3.2, Fluo-4 FLIPR, closed or inactivated state not stated
Description: as §1, with “µL” for “μL”, “(1.2×10^6” for “(1.4×10^6”
Cells were washed with a wash buffer containing (in mM): 118 NaCl, 18.4 HEPES, 11.7 D-glucose, 2 CaCl2, 0.5 MgSO4, 4.7 KCl, and 1.2 KH2PO4, with the pH adjusted to 7.2 with
(§4) NaOH. 4.4 μM of the fluorescent indicator dye Fluo-4 (Invitrogen) prepared in pluronic acid (Sigma-Aldrich) was loaded into the wells and incubated for 45 minutes at 29° C. in 5% CO2. […] A change in the Fluo-4 fluorescence signal was assessed using FLIPR^TETRA™ instrument (Molecular Devices, Sunnyvale, Calif.) for 3 minutes following the elevation of extracellular KCl using an illumination wavelength of 470-495 nm with emissions recorded at 515-575 nm. […]
as §2, §3

CaV3.1 = CaV3.1 (Homo sapiens, UniProt O43497); assay: High-throughput CaV3.1 T-type FLIPR fluorescent assay; conditions: read-out: FLIPR data CaV3.1, Fluo-4 FLIPR
Description: as §1, with “(2.0×10^6” for “(1.4×10^6”
Cells were washed with a wash buffer containing (in mM): 118 NaCl, 18.4 HEPES, 11.7 D-glucose, 0.05 CaCl2, 0.5 MgSO4, 1 KCl, and 1.2 KH2PO4, with the pH adjusted to 7.2 with NaOH. 4.4 μM of the fluorescent indicator dye, Fluo-4 (Invitrogen), prepared in pluronic acid
as §4, with “(Sigma-Aldrich),” for “NaOH. 4.4 μM of the fluorescent indicator dye Fluo-4 (Invitrogen) prepared in pluronic acid (Sigma-Aldrich)”
as §2, §3

SMILES | IC50 (CaV2.2; Table 5) | IC50 (CaV2.2; Table 4) | further results
Cc1ccc(S(C)(=O)=O)cc1C(=O)NCCC(C)(C)S(=O)(=O)c1cccc(C(F)(F)F)c1 | 1180 nM | – | –
Cn1nc(C(F)(F)F)cc1C(=O)NCc1ccc(S(=O)(=O)c2cccc(C(F)(F)F)c2)cn1 | – | 570 nM | IC50 (CaV3.2; Table 4): 740 nM; IC50 (CaV3.1; Table 4): 1450 nM
CC(C)(CNC(=O)c1cc(C(F)(F)F)nc(S(C)(=O)=O)c1)S(=O)(=O)c1cccc(C(F)(F)F)c1 | 2230 nM | – | –
CC(C)(CCNC(=O)c1ncc(C(F)(F)F)cc1S(C)(=O)=O)S(=O)(=O)c1cc(F)cc(C(F)(F)F)c1 | 1440 nM | – | –
O=C(NCc1ccccc1S(=O)(=O)c1cccc(C(F)(F)F)c1)[C@@H]1C[C@@H](O)CN1 | – | 9490 nM | –
CC(C)(CNC(=O)c1cc(Cl)nc(Cl)c1)S(=O)(=O)c1cccc(C(F)(F)F)c1 | 1650 nM | – | IC50 (CaV3.2; Table 5): 3530 nM; IC50 (CaV3.1; Table 5): 8960 nM

Read-outs that look alike come from different tables or passages of the source. The match of structure and compound is tentative.
